Literature values, collected in patent US11213486B2, “Drug-containing fat emulsion and nethod for producing same” (Techno Guard Co. Ltd., priority 2017, dated 2022).

Conditions: of the drug contained in the emulsion

Row | Compound | Solubility in water (expression in Japanese Pharmacopoeia)
1 | COc1ccc2c(c1)c(CC(=O)O)c(C)n2C(=O)c1ccc(Cl)cc1 [Indometacin, indometacin] | Practically insoluble
2 | C=CC[C@@H]1/C=C(\C)C[C@H](C)C[C@H](OC)[C@H]2O[C@@](O)(C(=O)C(=O)N3CCCC[C@H]3C(=O)O[C@H](/C(C)=C/[C@@H]3CC[C@@H](O)[C@H](OC)C3)[C@H](C)[C@@H](O)CC1=O)[C@H](C)C[C@@H]2OC [Tacrolimus, tacrolimus] | Practically insoluble
